Experimental data: PubChem BioAssay AID1224828 (NIAID, 2016)
The deposit covers about 17,000 reagents; shown is a random part of them. Over the whole deposit, 762 (4.5%) are marked active. 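Active calls include both raised and lowered p65 entry, mostly lowered; wells with fewer than 50 cells lack a z-score.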 Raw values are not corrected between plates. A number with no mark means an inactive call. The numbers tell different reagents against one gene apart. A reagent listed more than once was tested more than once; the source does not tell the runs apart.

- Assay: 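Regulators linking TLR4 signalling to p65 nuclear translocation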 (primary screen)
- Cells: mouse RAW264.7 G9 macrophage reporter cells (GFP-p65, Tnf promoter-mCherry)
- Knock-down reagent: siRNA pool against mouse genes, 100 nM
- Timing: 2 days siRNA transfection, then 40 min LPS before fixation
- Treatment: LPS (Salmonella minnesota R595) at 10 ng/ml
- Read-out: 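Microscopy ratio of nuclear to perinuclear-ring GFP-p65 signal, scaled to the plate median; gene score is the average of two replicate robust z-scores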
- Direction: p65 translocation robust z-score: higher = more nuclear NF-kappaB p65 after LPS than the plate median; nuclear/cytoplasmic p65 ratio: higher = more nuclear NF-kappaB p65
- Hit rule: 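Called active when z exceeds 3.3 or falls under -1.56 (median of Tlr4 controls), giving activity score of at least 50; no calls for control wells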
- Calls: active = hit (p65 shift raised or lowered); inactive = no clear change

Target gene	reagent	p65 translocation robust z-score	nuclear/cytoplasmic p65 ratio, rep 1	nuclear/cytoplasmic p65 ratio, rep 2	low cell count flag
Galnt1 (polypeptide N-acetylgalactosaminyltransferase 1)	1	0.72	1.68	1.45	enough cells to score
Tm6sf1 (transmembrane 6 superfamily member 1)	1	-0.85	1.24	1.12	enough cells to score
Dnmt3a (DNA methyltransferase 3A)	1		1.82	1.5	fewer than 50 cells per well; well left out of scoring
Barx2 (BarH-like homeobox 2)	1	-1.28	1.39	1.45	enough cells to score
Grin3a (glutamate receptor ionotropic, NMDA3A)	1	-0.91	1.12	1.28	enough cells to score
Or2ag12 (olfactory receptor family 2 subfamily AG member 12)	1		1.29	1.11	fewer than 50 cells per well; well left out of scoring
Gm20735 (predicted gene, 20735)	1	-0.15	1.36	1.57	enough cells to score
Ccdc69 (coiled-coil domain containing 69)	1	0.27	1.46	2	enough cells to score
4933431E20Rik (RIKEN cDNA 4933431E20 gene)	1	-0.64	1.31	1.35	enough cells to score
Vps45 (vacuolar protein sorting 45)	1	-0.33	1.38	1.19	enough cells to score
Klhl8 (kelch-like 8)	1	2.23	1.89	1.71	enough cells to score
Skint7 (selection and upkeep of intraepithelial T cells 7)	1	0.15	1.48	1.51	enough cells to score
Tmem150c (transmembrane protein 150C)	1		1.27	1.32	fewer than 50 cells per well; well left out of scoring
Zbtb44 (zinc finger and BTB domain containing 44)	1		1.15	1.11	fewer than 50 cells per well; well left out of scoring
Zbtb44 (zinc finger and BTB domain containing 44)	2	0.5	1.45	1.64	enough cells to score
Bpnt1 (3'(2'), 5'-bisphosphate nucleotidase 1)	1	-0.88	1.56	1.41	enough cells to score
Atp13a5 (ATPase type 13A5)	1	2.09	1.44	1.82	enough cells to score
Hoga1 (4-hydroxy-2-oxoglutarate aldolase 1)	1	0.33	1.55	1.71	enough cells to score
Rorc (RAR-related orphan receptor gamma)	1	-0.34	1.5	1.44	enough cells to score
Map2k3 (mitogen-activated protein kinase kinase 3)	1		1.45	1.37	fewer than 50 cells per well; well left out of scoring
Bach2	1	0.92	1.84	1.67	enough cells to score
Atp6v0e2 (ATPase, H+ transporting, lysosomal V0 subunit E2)	1	0.93	1.69	1.56	enough cells to score
Gpr108 (G protein-coupled receptor 108)	1	1.33	1.58	1.75	enough cells to score
Smarcd3 (SWI/SNF related BAF chromatin remodeling complex subunit D3)	1	0.04	1.58	1.54	enough cells to score
Or1n1 (olfactory receptor family 1 subfamily N member 1)	1		1.36	1.3	fewer than 50 cells per well; well left out of scoring
Slc22a19	1	-0.05	1.36	1.28	enough cells to score
Kcnk12 (potassium channel, subfamily K, member 12)	1	2.81	2	1.76	enough cells to score
Fbxo44 (F-box protein 44)	1	-0.03	1.56	1.49	enough cells to score
Hccs (holocytochrome c synthetase)	1	1.14	1.83	1.7	enough cells to score
Trit1 (tRNA isopentenyltransferase 1)	1	2.39	1.75	1.45	enough cells to score
Esrra (estrogen related receptor, alpha)	1	-0.97	1.3	1.28	enough cells to score
Otop2 (otopetrin 2)	1	-0.1	1.35	1.29	enough cells to score
Tmem117 (transmembrane protein 117)	1	0.42	1.52	2.05	enough cells to score

The list goes on; the last 7 above are carried over.
Target gene	reagent	p65 translocation robust z-score	nuclear/cytoplasmic p65 ratio, rep 1	nuclear/cytoplasmic p65 ratio, rep 2	low cell count flag
Kcnk12 (potassium channel, subfamily K, member 12)	1	2.81	2	1.76	enough cells to score
Fbxo44 (F-box protein 44)	1	-0.03	1.56	1.49	enough cells to score
Hccs (holocytochrome c synthetase)	1	1.14	1.83	1.7	enough cells to score
Trit1 (tRNA isopentenyltransferase 1)	1	2.39	1.75	1.45	enough cells to score
Esrra (estrogen related receptor, alpha)	1	-0.97	1.3	1.28	enough cells to score
Otop2 (otopetrin 2)	1	-0.1	1.35	1.29	enough cells to score
Tmem117 (transmembrane protein 117)	1	0.42	1.52	2.05	enough cells to score
Lrit2	1	-0.11	1.42	1.45	enough cells to score
Nr1h5 (nuclear receptor subfamily 1, group H, member 5)	1	3.14	2.3	1.9	enough cells to score
Sla (src-like adaptor)	1	-0.19	1.55	1.5	enough cells to score
Hsf4 (heat shock transcription factor 4)	1	-1.16	1.16	1.35	enough cells to score
Cops2 (COP9 signalosome subunit 2)	1	1.35	1.66	1.55	enough cells to score
Sult4a1 (sulfotransferase family 4A, member 1)	1		1.27	1.1	fewer than 50 cells per well; well left out of scoring
Etfdh (electron transferring flavoprotein, dehydrogenase)	1	0.64	1.6	1.4	enough cells to score
Tbc1d17 (TBC1 domain family, member 17)	1		1.16	1.4	fewer than 50 cells per well; well left out of scoring
Gpr153 (G protein-coupled receptor 153)	1	-0.31	1.43	1.31	enough cells to score
Sbno2 (strawberry notch 2)	1	-0.66	1.42	1.8	enough cells to score
Nr0b1 (nuclear receptor subfamily 0, group B, member 1)	1	-0.15	1.41	1.41	enough cells to score
F8a (factor 8-associated gene A)	1	1.57	1.69	1.8	enough cells to score
Apoa5 (apolipoprotein A-V)	1	0.71	1.76	1.56	enough cells to score
Tuba4a (tubulin, alpha 4A)	1	0.47	1.66	1.49	enough cells to score
Ssh3 (slingshot protein phosphatase 3)	1	-1.59 (active)	1.31	1.34	enough cells to score
Usb1 (U6 snRNA biogenesis 1)	1	0.27	1.43	1.55	enough cells to score
Uba1y (ubiquitin-activating enzyme, Chr Y)	1		1.41	1.34	fewer than 50 cells per well; well left out of scoring
Slc26a3	1	0.93	1.63	1.67	enough cells to score
Or5m3 (olfactory receptor family 5 subfamily M member 3)	1	-0.04	1.74	1.5	enough cells to score
Kdm4a (lysine (K)-specific demethylase 4A)	1	0.58	1.69	1.46	enough cells to score
Rbmxl1 (RNA binding motif protein, X-linked like-1)	1	0.9	1.48	1.37	enough cells to score
Tas2r130 (taste receptor, type 2, member 130)	1	0.21	1.4	1.76	enough cells to score
Nim1k (NIM1 serine/threonine protein kinase)	1	-0.18	1.71	1.32	enough cells to score
Pfkfb2 (6-phosphofructo-2-kinase/fructose-2,6-biphosphatase 2)	1	-0.17	1.63	1.38	enough cells to score
Nqo2 (N-ribosyldihydronicotinamide quinone reductase 2)	1	-0.56	1.24	1.46	enough cells to score
Lce1f (late cornified envelope 1F)	1	0.17	1.53	1.57	enough cells to score
Zfp397 (zinc finger protein 397)	1	0.55	1.39	1.31	enough cells to score
Zfp420 (zinc finger protein 420)	1	-0.1	1.51	1.57	enough cells to score
Vmn1r19 (vomeronasal 1 receptor 19)	1	1.67	1.61	1.41	enough cells to score
Recql4 (RecQ protein-like 4)	1	-0.57	1.45	1.67	enough cells to score
Grk4 (G protein-coupled receptor kinase 4)	1	0.57	1.86	1.39	enough cells to score
Grk4 (G protein-coupled receptor kinase 4)	1	1.8	1.68	1.93	enough cells to score
Tmem91 (transmembrane protein 91)	1	-0.71	1.31	1.41	enough cells to score
Pfkfb4 (6-phosphofructo-2-kinase/fructose-2,6-biphosphatase 4)	1	1.85	1.9	1.69	enough cells to score
Tbc1d10b (TBC1 domain family, member 10b)	1	0.45	1.6	1.51	enough cells to score
Gpbp1 (GC-rich promoter binding protein 1)	1	0.14	1.4	1.45	enough cells to score
Camk1g (calcium/calmodulin-dependent protein kinase I gamma)	1	0.31	1.75	1.42	enough cells to score
Rnf10 (ring finger protein 10)	1	-0.06	1.41	1.21	enough cells to score
Rgs14 (regulator of G-protein signaling 14)	1	-1.79 (active)	1.26	1.26	enough cells to score
Jagn1 (jagunal vesicle mediated transporter 1)	1	0.66	1.45	1.55	enough cells to score
Or5b123 (olfactory receptor family 5 subfamily B member 123)	1	-0.2	1.61	1.38	enough cells to score
Rhoh (ras homolog family member H)	1	-0.62	1.19	1.42	enough cells to score
